Test results taken from patent US10711041B2 (priority 2013, dated 2020).

Assay: peptide synthesis
Conditions: whole synthesis, acetate salt

In the case of “Cyclo(CGQREAPAGAAAKPWYC) (cyclic; cyclic peptide with disulfide bridge; DISULFIDE (1)..(17))”, the “final HPLC purity” value is reported as 95%.

Assay: general procedure: Fmoc solid-phase peptide synthesis; 2-chlorotritylchloride resin; Diisopropyl carbodiimide and N-hydroxybenzotriazole
Conditions: whole synthesis, reverse HPLC, acetate salt

Going from “Cyclo(4-amino butyric acid-GQRETPEGAEAKPWYD)” to Cyclo(CGQRETPEGAEAKPWYC), the “final HPLC purity” value falls from 99% to 96.3%.

Going from Cyclo(KGQRETPEGAEAKPWYG) to Cyclo(KSPGQRETPEGAEAKPWYE), the “final HPLC purity” value falls from 98.8% to 96.3%.

Going from Cyclo(ornithine-GQRETPEGAEAKPWYG) to Cyclo(β-alanine-GQRETPEGAEAKPWYE), the “final HPLC purity” value rises from 97.4% to 99%.
